PubChem BioAssay AID1259308 | NCATS – 2017
Screen: 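Candidate targets for better recombinant protein yield in mammalian cells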 (primary screen). Cells: human HEK293 embryonic kidney cells stably expressing firefly luciferase (HEK-CMV-Luc2-Hygro). Knock-down reagent: single siRNA against human genes, 0.8 pmol siRNA per well. Time to read-out: 72 h. Measurement: 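Luciferase light (ONE-Glo) measured on one replicate plate set and viability (CellTiter-Glo) on the other, scaled to a negative control siRNA, with robust z-scores and luciferase per cell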. Reading the numbers: total luciferase, z-score: higher = more reporter protein produced. Rule for the call: 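An siRNA counts as active if its total luciferase robust z-score exceeds 3; genes with two or more such siRNAs out of three were retested with fresh siRNAs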. Calls: active = raised luciferase; inactive = no rise.
This is an unselected part of about 59,000 reagents tested. About 1,510 of all reagents (2.6%) were called active. 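Calls use total luciferase alone and ignore viability, so some active siRNAs may act by altering cell number.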 Unmarked entries are inactive. The numbers tell different reagents against one gene apart. Not all columns of the deposit are shown. No sequences are given here.

How did the screen score R3HDM4 (R3H domain containing 4) #1?
total luciferase, z-score: 0.118

With R3HDM4 (R3H domain containing 4) #2, how do the results read?
total luciferase, z-score: -0.0905

With R3HDM4 (R3H domain containing 4) #3, what does the deposit list?
total luciferase, z-score: -0.126

What did the screen give for MED6 (mediator complex subunit 6) #1?
total luciferase, z-score: -2.12

With MED6 (mediator complex subunit 6) #2, how do the results read?
total luciferase, z-score: -2.14

How did the screen score MED6 (mediator complex subunit 6) #3?
total luciferase, z-score: -2.38

With AQP2 (aquaporin 2) #1, what was measured?
total luciferase, z-score: -1.19

With AQP2 (aquaporin 2) #2, what does the deposit list?
total luciferase, z-score: -0.416

How did the screen score AQP2 (aquaporin 2) #3?
total luciferase, z-score: 0.481

Entries listed so far whose gene name begins with A or a:
AQP2 (aquaporin 2) #1 | total luciferase, z-score = -1.19
AQP2 (aquaporin 2) #2 | total luciferase, z-score = -0.416
AQP2 (aquaporin 2) #3 | total luciferase, z-score = 0.481

More records:
How did the screen score OR52M1 (olfactory receptor family 52 subfamily M member 1) #1?
total luciferase, z-score: -0.685

For OR52M1 (olfactory receptor family 52 subfamily M member 1) #2, what does the deposit list?
total luciferase, z-score: 2.64

For OR52M1 (olfactory receptor family 52 subfamily M member 1) #3, what was measured?
total luciferase, z-score: -0.658

What did the screen give for FHL2 (four and a half LIM domains 2) #1?
total luciferase, z-score: -0.947

What did the screen give for FHL2 (four and a half LIM domains 2) #2?
total luciferase, z-score: -0.632

With FHL2 (four and a half LIM domains 2) #3, what does the deposit list?
total luciferase, z-score: -1.48

For PMS2P12 #1, how do the results read?
total luciferase, z-score: 2.26

Which result is listed for PMS2P12 #2?
total luciferase, z-score: -0.476

How did the screen score PMS2P12 #3?
total luciferase, z-score: -0.568

With SHISAL1 (shisa like 1) #1, what does the deposit list?
total luciferase, z-score: -0.183

How did the screen score SHISAL1 (shisa like 1) #2?
total luciferase, z-score: -0.185

How did the screen score SHISAL1 (shisa like 1) #3?
total luciferase, z-score: 0.905
